Laboratory results taken from patent US12240912.
No constants are given. Whether binding was seen depends on the method and setting. Some results given as binding are weak or reduced against the parent protein; the word gives no strength. Values belong to the binder of their own block, whether it stands above or below them.

The chains behind the UniProt entries cited, without tags or fusion partners. Residues count along the entry.
UniProt P01024, residues 23-1663: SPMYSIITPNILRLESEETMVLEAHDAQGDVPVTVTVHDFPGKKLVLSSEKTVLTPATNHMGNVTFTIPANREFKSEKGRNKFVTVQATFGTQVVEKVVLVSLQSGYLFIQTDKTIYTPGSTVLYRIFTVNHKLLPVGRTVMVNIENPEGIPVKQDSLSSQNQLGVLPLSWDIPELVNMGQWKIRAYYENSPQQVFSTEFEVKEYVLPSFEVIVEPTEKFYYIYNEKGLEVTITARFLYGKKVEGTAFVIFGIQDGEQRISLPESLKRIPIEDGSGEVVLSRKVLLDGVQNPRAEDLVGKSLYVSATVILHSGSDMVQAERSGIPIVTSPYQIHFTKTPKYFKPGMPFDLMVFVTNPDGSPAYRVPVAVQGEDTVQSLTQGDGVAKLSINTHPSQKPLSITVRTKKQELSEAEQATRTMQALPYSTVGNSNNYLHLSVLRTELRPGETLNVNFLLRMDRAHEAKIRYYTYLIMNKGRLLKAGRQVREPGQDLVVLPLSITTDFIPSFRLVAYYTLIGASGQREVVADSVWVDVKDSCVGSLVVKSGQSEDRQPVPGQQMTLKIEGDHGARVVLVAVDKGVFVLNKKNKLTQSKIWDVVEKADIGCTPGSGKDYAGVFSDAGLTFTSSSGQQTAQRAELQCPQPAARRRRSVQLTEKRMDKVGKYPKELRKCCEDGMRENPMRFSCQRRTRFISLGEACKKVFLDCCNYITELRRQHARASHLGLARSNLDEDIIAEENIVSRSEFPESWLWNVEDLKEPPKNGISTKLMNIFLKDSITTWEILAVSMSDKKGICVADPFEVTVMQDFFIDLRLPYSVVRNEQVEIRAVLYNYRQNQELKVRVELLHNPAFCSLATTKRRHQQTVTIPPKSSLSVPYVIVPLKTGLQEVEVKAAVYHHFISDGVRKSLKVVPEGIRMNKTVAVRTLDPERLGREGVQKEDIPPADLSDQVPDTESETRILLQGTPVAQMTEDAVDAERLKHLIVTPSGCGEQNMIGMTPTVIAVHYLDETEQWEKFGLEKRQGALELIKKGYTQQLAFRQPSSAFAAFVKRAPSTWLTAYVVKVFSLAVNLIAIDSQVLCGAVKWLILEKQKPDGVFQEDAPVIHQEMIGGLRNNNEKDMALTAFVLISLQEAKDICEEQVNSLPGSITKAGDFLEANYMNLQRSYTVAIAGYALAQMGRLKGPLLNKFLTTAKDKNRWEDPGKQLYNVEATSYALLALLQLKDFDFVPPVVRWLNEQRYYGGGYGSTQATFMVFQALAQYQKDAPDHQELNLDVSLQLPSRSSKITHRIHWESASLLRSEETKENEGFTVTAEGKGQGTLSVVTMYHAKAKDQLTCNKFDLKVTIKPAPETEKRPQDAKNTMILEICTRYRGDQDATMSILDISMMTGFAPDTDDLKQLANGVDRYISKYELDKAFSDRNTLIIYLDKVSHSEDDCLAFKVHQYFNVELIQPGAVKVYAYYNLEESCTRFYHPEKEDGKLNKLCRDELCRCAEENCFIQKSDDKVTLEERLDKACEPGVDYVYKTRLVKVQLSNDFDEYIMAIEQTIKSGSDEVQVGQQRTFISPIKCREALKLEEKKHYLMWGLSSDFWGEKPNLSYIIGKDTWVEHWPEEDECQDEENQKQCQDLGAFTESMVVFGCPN

Key:
C3MA [1] = target: C3MA (UniProt P01024); test: surface plasmon resonance
[2] = target: Human C3 (native C3) (human) (UniProt P01024); test: surface plasmon resonance
[3] = target: Human C3 (native C3) (human) (UniProt P01024); test: overview table, + indicates binding; method not given
C3MA [4] = target: C3MA (UniProt P01024); test: SPR; the sheet does not say which partner is on the chip
[5] = target: Human C3 (native C3) (human) (UniProt P01024); test: as above

- binding (C3MA [1]): binds
- binding [2]: binds
- binding [3]: binds
- binding (C3MA [4]): binds
- binding [5]: binds
B1: DI62 (VHH)
VHH: QVQLVESGGGLVQAGGSLRLSCAASGRTFSDYTMGWFRQAPGKEREFVAGLSTGGSFTRYAASVEGRFTISRDNAKTTVYLQMNNLQPEDTAVYYCAADFTPYGTNWSRFREARDHYWGQGTQVTVSS

- binding [3]: binds
B2: D121 (VHH)
VHH: QVQLVESGGGLVQAGGSLRLSCVVSGSTFSDYAMGWYRQAAGEQRELVAAIYSTGRTNYIDSVKGRFTISRDNAKTTVYLQMNSLKPEDTAVYYCNLLGATTMINTKWGQGTQVTVSS
